Patent US20220204638A1, “Combination Therapies Comprising Daratumumab, Bortezomib, Thalidomide and Dexamethasone and Their Uses” (Janssen Biotech, Inc., priority 2019, published 2022)

Tested on: multiple myeloma
Test: Clinical trials pooled, monotherapy and combination treatments (N=2,066)
Conditions: human, in vivo

DARZALEX: IgG1κ human monoclonal antibody against CD38, HC SEQ ID NO: 9 and LC SEQ ID NO: 10
Median duration of 16 mg/kg infusion, 1st week: approximately 7 hours | Median duration of 16 mg/kg infusion, 2nd week: ~4 h | Median duration of 16 mg/kg infusion, subsequent infusions: ~3 h
